Laboratory results: publication PMC6242907, “Molecular basis of maintaining an oxidizing environment under anaerobiosis by soluble fumarate reductase” (Nature Communications, 2018)
Results are given in words; binding and its absence hold for the method and conditions named. Binding seen in cells or lysates may run through a third protein. Some binding calls cover weakened binding; strength is not graded here. Tags and fused reporters may be left off the sequences shown.

Molecular target: T1, FLAG-tagged Ero1 (yeast) (UniProt Q03103)
T1 sequence: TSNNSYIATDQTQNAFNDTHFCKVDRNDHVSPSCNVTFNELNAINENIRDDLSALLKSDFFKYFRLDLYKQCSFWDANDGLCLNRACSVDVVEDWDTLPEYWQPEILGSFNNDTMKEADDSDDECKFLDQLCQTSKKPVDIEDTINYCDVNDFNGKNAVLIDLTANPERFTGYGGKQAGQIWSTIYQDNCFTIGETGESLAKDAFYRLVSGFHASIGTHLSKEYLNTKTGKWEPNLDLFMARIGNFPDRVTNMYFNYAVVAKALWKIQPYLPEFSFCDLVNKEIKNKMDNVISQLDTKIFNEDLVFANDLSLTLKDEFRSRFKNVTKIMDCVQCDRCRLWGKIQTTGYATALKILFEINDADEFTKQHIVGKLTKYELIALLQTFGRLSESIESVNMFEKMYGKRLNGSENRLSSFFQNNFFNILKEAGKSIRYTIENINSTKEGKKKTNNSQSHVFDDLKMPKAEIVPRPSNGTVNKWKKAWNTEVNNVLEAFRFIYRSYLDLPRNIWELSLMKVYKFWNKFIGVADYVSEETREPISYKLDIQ
Test: co-IP; lysates of yeast BY4742 over-expressing Ero1-FLAG (or Ero1-3xMyc as control) and Osm1-3xHA; anti-FLAG affinity beads, TBS, 1% Triton, on ice; immunoblot

binding: binds weakly
B1: 3x HA-tagged Osm1 (enzyme, UniProt P21375 33-501)
chain: MKQPVVVIGSGLAGLTTSNRLISKYRIPVVLLDKAASIGGNSIKASSGINGAHTDTQQNLKVMDTPELFLKDTLHSAKGRGVPSLMDKLTKESKSAIRWLQTEFDLKLDLLAQLGGHSVPRTHRSSGKLPPGFEIVQALSKKLKDISSKDSNLVQIMLNSEVVDIELDNQGHVTGVVYMDENGNRKIMKSHHVVFCSGGFGYSKEMLKEYSPNLIHLPTTNGKQTTGDGQKILSKLGAELIDMDQVQVHPTGFIDPNDRENNWKFLAAEALRGLGGILLHPTTGRRFTNELSTRDTVTMEIQSKCPKNDNRALLVMSDKVYENYTNNINFYMSKNLIKKVSINDLIRQYDLQTTASELVTELKSYSDVNTKDTFDRPLIINAFDKDISTESTVYVGEVTPVVHFTMGGVKINEKSQVIKKNSESVLSNGIFAAGEVSGGVHGANRLGGSSLLECVVFGKTAADNIAKLY
